In PMC2659801:
No constants are given. Whether binding was seen depends on the method and setting. Binding seen in cells or lysates may run through a third protein. Some entries that bind do so weakly or less than the wild type. Sequences can lack the tags named with a protein.

The chains behind the UniProt entries cited, without tags or fusion partners.
UniProt Q99496: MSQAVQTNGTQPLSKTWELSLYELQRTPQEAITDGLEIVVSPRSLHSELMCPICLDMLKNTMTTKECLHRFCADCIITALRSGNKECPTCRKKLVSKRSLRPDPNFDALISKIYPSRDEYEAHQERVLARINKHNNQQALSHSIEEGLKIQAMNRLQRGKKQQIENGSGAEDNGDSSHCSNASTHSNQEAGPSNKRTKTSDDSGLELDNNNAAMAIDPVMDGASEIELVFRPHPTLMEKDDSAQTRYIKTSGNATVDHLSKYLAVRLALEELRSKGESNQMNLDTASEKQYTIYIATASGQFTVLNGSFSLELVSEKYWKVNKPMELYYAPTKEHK

Target: T1, GST-Bmi1 (UniProt P25916)
T1 sequence: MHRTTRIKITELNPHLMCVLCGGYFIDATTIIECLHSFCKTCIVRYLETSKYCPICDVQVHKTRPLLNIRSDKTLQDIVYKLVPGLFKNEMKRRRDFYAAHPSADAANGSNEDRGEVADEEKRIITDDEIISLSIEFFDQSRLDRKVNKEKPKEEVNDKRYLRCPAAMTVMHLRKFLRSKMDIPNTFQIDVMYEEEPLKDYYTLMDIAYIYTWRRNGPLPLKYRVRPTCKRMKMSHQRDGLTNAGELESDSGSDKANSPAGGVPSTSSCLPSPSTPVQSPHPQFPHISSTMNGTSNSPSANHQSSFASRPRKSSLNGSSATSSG
Experiment: pull-down; GST-fused proteins on beads, S35-methionine-labelled in vitro translated protein; binding buffer 20 mM Tris pH 8.0, 100 mM NaCl, 0.1% NP-40, 1 mM DTT, 1 hr at 4°C; 3 washes; autoradiography; only the target purified

Substance: in vitro-translated (IVT) Ring1B (from UniProt Q99496 1-336)
- binding: binds
